Laboratory results: patent US20250034245A1
No constants are given. Whether binding was seen depends on the method and setting. A result given as binding can be weak or reduced; the word gives no strength. Each block holds one binder with its values, some of them ahead of it.

Molecular target: Siglec-8^ΔE2 (truncated human Siglec-8 lacking exon 2) (human)
Experiment: flow cytometry on K562 cells expressing Siglec-8 ΔE2 (FIG. 9C)

binding: binds
B1: S8-ATX1E1 (antibody, V domains shown)
VH: EVQLVESGGGLVQPGRSLRLSCAASGFMFDDYVMHWVRQAPGKGLEWVSGINWNSDNIGYADSVKGRFTISRDNAKNSLFLQMNSLRVEDTALYYCAKDIDAAAFDYWGQGTLVTVSS
VL: DIVMTQSPLSLPVTPGEPASISCRSSQSLLHSNGYSYLAWYLQKPGQSPQLLIYLVSNRASGVPDRFTGSGSGTDFTLKISRVEAEDVGVYYCMQALQTPWTFGQGTKVEIK

binding: binds
B2: S8-ATX1E4 (antibody, V domains shown)
VH: QVQLVQSGSELKKPGASVKVSCKTSGYTFTSYAMNWVRQAPGQGLEWMGWINTNTGNPTYAQGFRGRFVFSLDTSVSTAYLQISSLKAEDTAVYYCARDKYSSSWYWFDSWGQGTLVTVSS
VL: DIQMTQSPSSLSASVGDRVTITCRPSQNISSYLNWYQQKPGKAPKLLIYAASSLRSGVPSRFSGSGSGTDFTLTVSSLQPEDFANYYCQQSYSTPYTFGRGTKLEIK
